Results are given in words; binding and its absence hold for the method and conditions named. Some binding calls cover weakened binding; strength is not graded here.
T1: human IL-36R (monomeric antigen of Example 8) (human) (UniProt Q9HB29)
T1 sequence (looked up): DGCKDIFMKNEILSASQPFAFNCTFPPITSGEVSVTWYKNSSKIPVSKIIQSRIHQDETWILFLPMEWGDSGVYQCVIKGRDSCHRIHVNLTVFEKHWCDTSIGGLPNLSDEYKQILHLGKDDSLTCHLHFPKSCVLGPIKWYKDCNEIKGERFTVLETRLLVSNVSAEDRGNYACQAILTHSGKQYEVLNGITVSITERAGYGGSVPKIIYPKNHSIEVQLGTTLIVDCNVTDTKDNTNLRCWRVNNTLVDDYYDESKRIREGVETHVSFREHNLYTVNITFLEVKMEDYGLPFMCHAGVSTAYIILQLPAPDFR

B1: APE5100 (1D9) (antibody, V domains shown)
VH: QVQLMQSGAEVKKPGASVKVSCKASGFTFTSYDINWVRQAPGQRLEWMGWIYPGDSSTKYNEKFKGRVTITRDKSANTAYMELASLRSEDTAVYFCTRSFYTMDYWGQGTTVTVSS
VL: DIVMTQSPLSLPVTPGEPASISCRSSKSLLHSNANTYLYWFLQKPGQSPQLLISRMSNLASGVPDRFSGSGSGTDFTLKISRVEAEDVGVYYCMQHLEYPFTFGQGTKLEIK
B2: Chimeric 18D4 (APE3847) (antibody, V domains shown)
VH: DVQFQESGPGLVKPSQSLSLTCTVTGYSITSDFAWNWIRQFPGNKLEWMGYISYSGDTNYNPSLKSRISITRDTSKNQFFLQLNSVTTEDTATYFCAIRGPYSFTYWGPGTLVTVSS
VL: DIQMTQTTSSLSASLGDRVTINCRASQDINNYLNWYQQKPDGTIRLLIYYTSRLHSGVPSRFSPNGSGTDYSLTINNLEQEDIATYFCQQGHTLPWTFGGGTKLEIK
B3: Hzd 5D3 (APE6155) (antibody, V domains shown)
VH: QVQLVQSGAEVKKPGASVKVSCKASGYTFTNYWMNWVRQAPRQGLEWMGMFHPTGDVTRLNQKFKDRVTMTRDTSTSTVYMELSSLRSEDTAVYYCARTTSMIIGGFAYWGQGTLVTVSS
VL: DIVMTQTPLSLSVTPGQPASISCRSSKSLLHRNAITYFYWYLHKPGQPPQLLIYQMSNLASGVPDRFSGSGSGTDFTLKISRVEAEDVGVYYCAQNLELPLTFGGGTKVEIK
notes: also called APE6917; APE06155

How the values were obtained:
[1] = molecular target: T1, human IL-36R (monomeric antigen of Example 8) (human); experiment: BIACORE SPR cross-competition: APE5100 captured by anti-human IgG, IL-36R at 1 uM run over it
[2] = molecular target: T1, human IL-36R (monomeric antigen of Example 8) (human); experiment: BIACORE T200 cross-competition, primary antibody captured, IL-36R at 1 µM, then secondary antibody
[3] = molecular target: T1, human IL-36R (monomeric antigen of Example 8) (human); experiment: BIACORE SPR cross-competition: secondary antibody on IL-36R held by captured primary antibody APE6155
[4] = molecular target: T1, human IL-36R (monomeric antigen of Example 8) (human); experiment: BIACORE SPR cross-competition: secondary antibody on IL-36R held by captured primary antibody APE5100
[5] = molecular target: T1, human IL-36R (monomeric antigen of Example 8) (human); experiment: BIACORE SPR cross-competition: APE6155 captured by anti-human IgG, IL-36R at 1 uM run over it

Row | binding [1] | binding [2] | binding [3] | binding [4] | binding [5] | Binder
1 | binds | binds | binds | – | – | B1
2 | – | – | – | binds | – | B2
3 | – | – | – | binds | binds | B3
